In the supplement of paper PMC6411743:
± gives the standard deviation of the averaged measurements. This is a selection; strong and weak results do not stand in their true shares.

Amino acid sequences for entries named in this document (tags omitted). A change or cut given only in a name is not applied to a line headed by its entry.
UniProt Q9UPT5: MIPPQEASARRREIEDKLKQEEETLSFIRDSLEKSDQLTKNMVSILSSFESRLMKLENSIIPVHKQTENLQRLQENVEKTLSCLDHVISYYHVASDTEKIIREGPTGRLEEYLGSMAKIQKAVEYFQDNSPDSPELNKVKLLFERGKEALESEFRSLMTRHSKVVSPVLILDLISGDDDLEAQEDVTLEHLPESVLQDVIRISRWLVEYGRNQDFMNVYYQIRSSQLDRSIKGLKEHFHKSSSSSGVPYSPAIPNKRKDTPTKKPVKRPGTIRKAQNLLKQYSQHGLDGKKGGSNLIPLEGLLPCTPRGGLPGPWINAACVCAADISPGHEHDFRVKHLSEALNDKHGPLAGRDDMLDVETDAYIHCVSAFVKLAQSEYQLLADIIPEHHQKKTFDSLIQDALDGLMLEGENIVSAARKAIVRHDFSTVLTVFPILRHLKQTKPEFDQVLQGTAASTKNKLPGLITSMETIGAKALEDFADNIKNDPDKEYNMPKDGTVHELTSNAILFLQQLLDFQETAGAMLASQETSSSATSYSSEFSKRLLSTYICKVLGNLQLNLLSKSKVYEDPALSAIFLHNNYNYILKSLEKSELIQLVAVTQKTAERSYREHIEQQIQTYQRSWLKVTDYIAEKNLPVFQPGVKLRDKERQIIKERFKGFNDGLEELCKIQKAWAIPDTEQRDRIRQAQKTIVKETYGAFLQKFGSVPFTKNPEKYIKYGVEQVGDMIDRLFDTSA
UniProt A8CG34, whole entry, looked up: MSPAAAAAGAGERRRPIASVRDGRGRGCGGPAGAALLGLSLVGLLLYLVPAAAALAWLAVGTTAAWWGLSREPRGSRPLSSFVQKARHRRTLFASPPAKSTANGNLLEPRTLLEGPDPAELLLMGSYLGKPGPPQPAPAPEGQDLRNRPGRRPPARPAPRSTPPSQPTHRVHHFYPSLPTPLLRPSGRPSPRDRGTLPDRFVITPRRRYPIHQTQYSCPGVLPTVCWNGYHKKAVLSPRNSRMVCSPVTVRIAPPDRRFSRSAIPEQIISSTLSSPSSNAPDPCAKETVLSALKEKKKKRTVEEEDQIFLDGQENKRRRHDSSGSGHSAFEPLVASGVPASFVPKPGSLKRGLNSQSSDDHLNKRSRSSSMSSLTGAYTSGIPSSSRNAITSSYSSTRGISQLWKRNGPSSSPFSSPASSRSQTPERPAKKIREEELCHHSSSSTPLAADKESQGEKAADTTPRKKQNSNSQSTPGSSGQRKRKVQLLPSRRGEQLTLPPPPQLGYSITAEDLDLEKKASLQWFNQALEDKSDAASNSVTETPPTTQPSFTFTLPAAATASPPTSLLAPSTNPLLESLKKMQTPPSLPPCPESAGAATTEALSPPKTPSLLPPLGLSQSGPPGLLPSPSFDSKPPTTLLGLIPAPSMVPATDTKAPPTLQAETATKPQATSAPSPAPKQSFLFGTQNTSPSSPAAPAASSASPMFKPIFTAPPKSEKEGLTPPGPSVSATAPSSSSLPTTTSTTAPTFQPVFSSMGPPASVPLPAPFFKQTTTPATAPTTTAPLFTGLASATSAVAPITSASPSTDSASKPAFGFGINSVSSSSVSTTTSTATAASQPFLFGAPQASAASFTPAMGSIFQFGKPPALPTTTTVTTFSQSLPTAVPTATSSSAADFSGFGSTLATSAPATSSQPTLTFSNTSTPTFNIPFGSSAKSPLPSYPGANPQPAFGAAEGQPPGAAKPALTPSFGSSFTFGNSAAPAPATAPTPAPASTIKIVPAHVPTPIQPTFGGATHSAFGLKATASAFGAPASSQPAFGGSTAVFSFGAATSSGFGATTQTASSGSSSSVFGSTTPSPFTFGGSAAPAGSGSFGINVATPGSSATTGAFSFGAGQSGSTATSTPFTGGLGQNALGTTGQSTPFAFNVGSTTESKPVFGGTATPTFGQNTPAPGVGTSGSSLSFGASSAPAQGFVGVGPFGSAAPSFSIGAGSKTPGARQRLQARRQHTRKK
UniProt Q96HA1, whole entry, looked up: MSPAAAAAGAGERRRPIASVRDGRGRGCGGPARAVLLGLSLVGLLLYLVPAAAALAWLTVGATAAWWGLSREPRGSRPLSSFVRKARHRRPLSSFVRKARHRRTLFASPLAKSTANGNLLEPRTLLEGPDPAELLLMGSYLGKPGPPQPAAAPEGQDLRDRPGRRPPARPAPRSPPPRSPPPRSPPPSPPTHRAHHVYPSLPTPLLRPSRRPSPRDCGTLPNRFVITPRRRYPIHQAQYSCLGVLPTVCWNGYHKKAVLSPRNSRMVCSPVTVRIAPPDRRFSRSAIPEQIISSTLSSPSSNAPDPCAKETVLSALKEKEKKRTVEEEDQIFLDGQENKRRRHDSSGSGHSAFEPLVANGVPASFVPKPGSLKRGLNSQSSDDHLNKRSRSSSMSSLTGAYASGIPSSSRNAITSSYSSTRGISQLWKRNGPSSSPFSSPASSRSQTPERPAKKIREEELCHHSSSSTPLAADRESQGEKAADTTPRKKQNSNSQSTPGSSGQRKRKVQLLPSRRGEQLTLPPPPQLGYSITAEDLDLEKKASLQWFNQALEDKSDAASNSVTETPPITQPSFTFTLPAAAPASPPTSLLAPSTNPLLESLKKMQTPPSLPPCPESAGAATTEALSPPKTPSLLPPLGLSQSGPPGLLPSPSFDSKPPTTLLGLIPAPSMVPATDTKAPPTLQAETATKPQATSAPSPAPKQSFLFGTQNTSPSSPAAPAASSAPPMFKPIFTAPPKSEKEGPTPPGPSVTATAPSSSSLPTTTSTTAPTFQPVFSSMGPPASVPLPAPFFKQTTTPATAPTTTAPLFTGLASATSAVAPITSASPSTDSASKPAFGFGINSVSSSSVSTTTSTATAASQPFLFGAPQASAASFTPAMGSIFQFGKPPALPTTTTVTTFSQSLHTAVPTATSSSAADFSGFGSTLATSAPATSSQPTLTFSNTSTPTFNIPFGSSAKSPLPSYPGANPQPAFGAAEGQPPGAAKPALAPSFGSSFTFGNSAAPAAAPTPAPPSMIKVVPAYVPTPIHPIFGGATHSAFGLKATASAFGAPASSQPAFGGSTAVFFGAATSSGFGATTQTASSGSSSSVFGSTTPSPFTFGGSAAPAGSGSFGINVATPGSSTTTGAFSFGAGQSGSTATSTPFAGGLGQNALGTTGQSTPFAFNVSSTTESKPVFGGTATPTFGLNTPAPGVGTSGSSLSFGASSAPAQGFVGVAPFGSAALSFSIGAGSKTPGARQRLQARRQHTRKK
UniProt O95139, whole entry: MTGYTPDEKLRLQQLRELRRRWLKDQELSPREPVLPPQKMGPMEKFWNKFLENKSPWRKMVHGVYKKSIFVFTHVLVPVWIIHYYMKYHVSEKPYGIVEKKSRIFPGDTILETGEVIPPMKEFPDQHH
UniProt Q9Y4K4: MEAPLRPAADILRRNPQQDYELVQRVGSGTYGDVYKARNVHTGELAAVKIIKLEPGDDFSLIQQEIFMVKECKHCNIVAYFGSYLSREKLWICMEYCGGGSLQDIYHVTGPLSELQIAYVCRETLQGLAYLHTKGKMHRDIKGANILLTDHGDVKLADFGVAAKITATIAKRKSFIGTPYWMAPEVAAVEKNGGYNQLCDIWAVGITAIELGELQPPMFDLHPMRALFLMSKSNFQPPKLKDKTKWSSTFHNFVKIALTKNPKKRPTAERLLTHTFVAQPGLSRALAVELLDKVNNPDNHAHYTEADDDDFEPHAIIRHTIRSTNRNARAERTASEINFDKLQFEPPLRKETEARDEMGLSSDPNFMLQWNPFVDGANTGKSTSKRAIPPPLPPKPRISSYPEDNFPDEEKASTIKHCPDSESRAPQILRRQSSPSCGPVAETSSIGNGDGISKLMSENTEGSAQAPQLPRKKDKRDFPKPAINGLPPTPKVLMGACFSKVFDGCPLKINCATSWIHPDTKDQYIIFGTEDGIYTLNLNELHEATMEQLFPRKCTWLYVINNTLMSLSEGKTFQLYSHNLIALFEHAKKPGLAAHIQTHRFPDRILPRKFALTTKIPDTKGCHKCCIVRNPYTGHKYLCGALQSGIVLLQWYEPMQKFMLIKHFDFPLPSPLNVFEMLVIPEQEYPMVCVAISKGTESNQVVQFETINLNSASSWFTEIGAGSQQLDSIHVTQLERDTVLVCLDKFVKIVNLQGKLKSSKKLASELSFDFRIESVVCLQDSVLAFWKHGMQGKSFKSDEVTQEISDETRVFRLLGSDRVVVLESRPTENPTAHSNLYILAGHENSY
UniProt Q05193: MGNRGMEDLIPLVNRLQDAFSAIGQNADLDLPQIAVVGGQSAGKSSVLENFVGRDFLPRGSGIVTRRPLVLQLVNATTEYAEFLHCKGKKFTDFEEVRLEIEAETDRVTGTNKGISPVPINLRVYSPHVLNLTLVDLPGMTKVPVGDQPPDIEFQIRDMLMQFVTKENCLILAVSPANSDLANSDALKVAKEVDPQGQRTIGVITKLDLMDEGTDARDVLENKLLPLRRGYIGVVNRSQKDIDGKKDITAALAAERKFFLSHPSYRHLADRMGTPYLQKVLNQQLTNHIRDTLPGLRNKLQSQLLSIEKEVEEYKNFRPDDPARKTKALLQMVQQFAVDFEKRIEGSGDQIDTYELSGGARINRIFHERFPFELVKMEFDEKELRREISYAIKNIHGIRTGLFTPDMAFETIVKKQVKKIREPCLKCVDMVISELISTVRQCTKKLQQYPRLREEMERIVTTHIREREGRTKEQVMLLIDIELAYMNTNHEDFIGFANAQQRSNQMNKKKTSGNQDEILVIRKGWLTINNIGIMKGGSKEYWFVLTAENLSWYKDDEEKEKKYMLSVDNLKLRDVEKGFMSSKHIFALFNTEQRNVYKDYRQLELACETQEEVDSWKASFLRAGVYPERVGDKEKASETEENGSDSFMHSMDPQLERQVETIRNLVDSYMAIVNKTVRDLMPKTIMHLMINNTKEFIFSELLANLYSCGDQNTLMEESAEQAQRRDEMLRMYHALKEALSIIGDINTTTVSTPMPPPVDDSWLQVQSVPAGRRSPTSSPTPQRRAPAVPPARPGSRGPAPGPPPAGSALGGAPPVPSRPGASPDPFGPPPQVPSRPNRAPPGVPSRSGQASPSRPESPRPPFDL
UniProt Q9H501: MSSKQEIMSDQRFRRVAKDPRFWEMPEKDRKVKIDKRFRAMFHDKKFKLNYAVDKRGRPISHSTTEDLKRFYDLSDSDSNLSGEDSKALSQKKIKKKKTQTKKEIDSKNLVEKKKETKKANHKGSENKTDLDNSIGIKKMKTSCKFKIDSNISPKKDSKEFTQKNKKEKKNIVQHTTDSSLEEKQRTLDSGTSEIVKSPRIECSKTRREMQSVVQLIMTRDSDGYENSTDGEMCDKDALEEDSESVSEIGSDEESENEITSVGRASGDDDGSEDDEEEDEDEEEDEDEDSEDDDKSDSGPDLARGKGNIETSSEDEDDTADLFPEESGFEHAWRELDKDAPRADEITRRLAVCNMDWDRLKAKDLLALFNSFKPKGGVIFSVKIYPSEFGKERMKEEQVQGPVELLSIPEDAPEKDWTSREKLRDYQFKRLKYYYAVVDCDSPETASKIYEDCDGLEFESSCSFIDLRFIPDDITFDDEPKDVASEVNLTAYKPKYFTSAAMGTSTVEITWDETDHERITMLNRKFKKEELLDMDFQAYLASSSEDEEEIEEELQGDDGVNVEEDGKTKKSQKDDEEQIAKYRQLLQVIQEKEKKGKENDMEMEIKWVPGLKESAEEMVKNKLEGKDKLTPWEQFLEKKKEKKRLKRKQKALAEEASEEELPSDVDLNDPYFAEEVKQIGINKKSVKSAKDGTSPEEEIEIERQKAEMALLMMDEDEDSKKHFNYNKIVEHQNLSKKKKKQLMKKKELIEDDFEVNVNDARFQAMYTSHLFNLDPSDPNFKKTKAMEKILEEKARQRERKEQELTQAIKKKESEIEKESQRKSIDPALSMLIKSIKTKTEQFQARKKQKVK
UniProt O15484: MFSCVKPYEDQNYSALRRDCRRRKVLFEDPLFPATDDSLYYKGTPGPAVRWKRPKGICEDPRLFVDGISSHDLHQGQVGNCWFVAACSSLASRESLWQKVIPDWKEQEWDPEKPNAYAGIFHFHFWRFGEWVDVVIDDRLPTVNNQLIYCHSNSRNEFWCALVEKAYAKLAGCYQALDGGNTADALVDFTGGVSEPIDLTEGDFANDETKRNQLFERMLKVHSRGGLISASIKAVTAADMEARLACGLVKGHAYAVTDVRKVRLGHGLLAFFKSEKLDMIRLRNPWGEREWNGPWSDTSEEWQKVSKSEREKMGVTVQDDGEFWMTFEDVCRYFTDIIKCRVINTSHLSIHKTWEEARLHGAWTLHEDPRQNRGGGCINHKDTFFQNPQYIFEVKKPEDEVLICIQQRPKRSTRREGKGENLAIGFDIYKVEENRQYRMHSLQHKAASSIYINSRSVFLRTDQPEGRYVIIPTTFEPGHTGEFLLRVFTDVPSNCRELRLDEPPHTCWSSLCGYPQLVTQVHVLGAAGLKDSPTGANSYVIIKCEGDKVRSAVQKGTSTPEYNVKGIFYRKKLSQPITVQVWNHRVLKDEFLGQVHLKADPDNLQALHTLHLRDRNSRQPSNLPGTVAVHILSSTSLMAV

Compound: Nc1ncnc2c1ncn2[C@@H]1O[C@H](COP(=O)(O)OP(=O)(O)OP(=O)(O)O)[C@@H](O)[C@H]1O [adenosine triphosphate]
Assay: NP40-soluble protein abundance relative to vehicle (solubility fold change) (ratio); higher = more soluble protein in presence of ATP
Procedure, shortened: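 Jurkat crude lysate prepared with a Dounce homogeniser was treated at eight concentrations spanning 0.1 to 10 mM, 10 min at room temperature then 3 min at 37 °C. Solubilisation with 0.8% NP40 and benzonase and ultracentrifugation preceded TMT labelling of the supernatant for LC-MS/MS. Fold change against the detergent-processed vehicle was determined per replicate from vsn-normalised intensities, across three independent experiments.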

Target	NP40-soluble protein abundance (concentration: 1mM)	NP40-soluble protein abundance (concentration: 2mM)	NP40-soluble protein abundance (concentration: 4mM)	NP40-soluble protein abundance (concentration: 6mM)	NP40-soluble protein abundance (concentration: 8mM)	NP40-soluble protein abundance (concentration: 10mM)
A0A087WT30|Q8N5I9 (UniProt Q8N5I9)	1.22 ± 0.17	1.19 ± 0.1	1.15 ± 0.036	1.09 ± 0.081	1.06 ± 0.041	1.06 ± 0.056
A0A0A0MSB8|Q9UPT5 and related entries (UniProt Q9UPT5)	1.02 ± 0.042	1.02 ± 0.035	0.994 ± 0.048	1.03 ± 0.045	0.981 ± 0.06	0.982 ± 0.014
A0A0A0MQS2|F5H0Q6 (UniProt Q8N2M8)	1.08 ± 0.17	1.12 ± 0.14	1.13 ± 0.24	1.26 ± 0.17	1.17 ± 0.17	1.18 ± 0.093
A0A0C4DFM7|Q5TAX3 (UniProt Q5TAX3)	0.971 ± 0.064	0.9704 ± 0.0026	0.977 ± 0.026	1 ± 0.03	0.979 ± 0.035	0.989 ± 0.061
A0A075B7F8|A8CG34 and related entries (UniProt Q96HA1+A8CG34)	0.918 ± 0.04	0.992 ± 0.061	1.22 ± 0.29	1.1 ± 0.065	1.13 ± 0.14	1.3 ± 0.16
A0A0C4DGP0|E7EU35 and related entries (UniProt Q9UKF7)	1.06 ± 0.097	1.04 ± 0.048	1.04 ± 0.05	1.02 ± 0.082	1.01 ± 0.091	1.06 ± 0.04
A0A087WZ13|E9PAU2 (UniProt Q8IY67)	0.874 ± 0.019	0.884 ± 0.036	0.887 ± 0.022	0.887 ± 0.011	0.898 ± 0.031	0.908 ± 0.024
A0A0C4DG17|C9J9K3 and related entries (UniProt P08865)	0.921 ± 0.07	0.903 ± 0.12	0.846 ± 0.11	0.813 ± 0.12	0.771 ± 0.1	0.803 ± 0.08
A0A0C4DFN1|Q8IWA4 (UniProt Q8IWA4)	1 ± 0.025	0.991 ± 0.038	0.979 ± 0.041	0.973 ± 0.064	0.964 ± 0.035	0.9814 ± 0.001
A0A087WXM6|A0A0A6YYL6|J3KRX5 and related entries (UniProt P18621)	0.925 ± 0.091	0.852 ± 0.1	0.787 ± 0.13	0.766 ± 0.14	0.525 ± 0.091	0.8 ± 0.13
A0A0A0MRS4|Q9NVV0 (UniProt Q9NVV0)	1.05 ± 0.059	1.02 ± 0.0023	1.01 ± 0.02	1 ± 0.059	1.021 ± 0.0047	1.011 ± 0.0058
A0A087WTF0|A2A3K4 and related entries (UniProt A2A3K4)	1.05 ± 0.11	1.14 ± 0.18	1.09 ± 0.05	1.21 ± 0.037	1.13 ± 0.14	0.993 ± 0.11
A0A087X0R7|Q9H4L4 (UniProt Q9H4L4)	0.949 ± 0.044	0.928 ± 0.02	0.922 ± 0.051	0.929 ± 0.21	0.987 ± 0.084	1.03 ± 0.085
A0A0C4DG40|Q8NF91 and related entries (UniProt Q8NF91)	0.986 ± 0.051	1 ± 0.024	1.01 ± 0.017	1.04 ± 0.014	0.957 ± 0.024	0.9767 ± 0.0028
A0A0C4DGH2|P62070 and related entries (UniProt P62070)	0.953 ± 0.029	0.983 ± 0.02	0.937 ± 0.042	0.922 ± 0.052	0.921 ± 0.025	0.947 ± 0.052
A0A087WZX2|O95139 (UniProt O95139)	0.905 ± 0.12	0.883 ± 0.097	0.885 ± 0.12	0.908 ± 0.17	0.931 ± 0.11	0.791 ± 0.19
A0A087X0W8|Q04206 and related entries (UniProt Q04206)	0.975 ± 0.02	0.982 ± 0.014	0.978 ± 0.014	0.965 ± 0.05	0.979 ± 0.017	0.971 ± 0.014
A0A0A0MTL5|D6R9R7 and related entries (UniProt Q13309)	1.08 ± 0.083	1.02 ± 0.12	0.977 ± 0.03	0.991 ± 0.059	1.02 ± 0.11	1.04 ± 0.16
A0A0C4DGX2|E7ESL0 and related entries (UniProt Q9NWU5)	1.01 ± 0.046	0.952 ± 0.11	0.936 ± 0.14	0.906 ± 0.2	0.939 ± 0.15	0.959 ± 0.17
A0A0A6YYH1|H0YLI7 and related entries (UniProt Q7Z6K5+P59780+H0YLI7)	0.898 ± 0.17	1.03 ± 0.085	1.02 ± 0.013	1.046 ± 0.0048	0.971 ± 0.032	0.962 ± 0.045
A0A0A0MR66	1.11 ± 0.047	1.12 ± 0.05	1.17 ± 0.051	1.26 ± 0.076	1.24 ± 0.037	1.27 ± 0.038
A0A0D9SFK2|Q92614 and related entries (UniProt Q92614)	0.963 ± 0.019	0.945 ± 0.021	0.915 ± 0.027	0.932 ± 0.059	0.912 ± 0.039	0.929 ± 0.034
A0A0A0MQR1|Q9Y4K4 (UniProt Q9Y4K4)	1.02 ± 0.02	1.02 ± 0.033	1.02 ± 0.027	0.968 ± 0.054	1.02 ± 0.03	1.01 ± 0.049
A0A0D9SFE4|A0A0D9SFB1|A0A0U1RQP1|Q05193 and related entries (UniProt Q05193)	0.978 ± 0.029	0.971 ± 0.029	0.969 ± 0.057	0.958 ± 0.048	0.988 ± 0.014	0.976 ± 0.03
A0A087WX71|Q9H501 (UniProt Q9H501)	1.03 ± 0.018	1.04 ± 0.019	1.06 ± 0.033	1.11 ± 0.034	1.09 ± 0.031	1.1 ± 0.015
A0A0C4DFZ2|P15289 (UniProt P15289)	0.945 ± 0.029	0.997 ± 0.023	0.991 ± 0.026	1 ± 0.022	0.941 ± 0.025	0.912 ± 0.021
A0A087WY71|Q96CW1 and related entries (UniProt Q96CW1)	1.1 ± 0.098	1.08 ± 0.07	1.1 ± 0.062	1.06 ± 0.11	1.12 ± 0.015	1.12 ± 0.036
A0A087X0C8|O15484 and related entries (UniProt O15484)	1.027 ± 0.0097	0.993 ± 0.055	1.04 ± 0.049	1.01 ± 0.025	1.06 ± 0.038	1.05 ± 0.034
A0A0A0MSS3|Q5T6P1 and related entries (UniProt Q8ND83)	0.967 ± 0.047	0.997 ± 0.019	1.02 ± 0.059	0.991 ± 0.051	0.978 ± 0.061	1.01 ± 0.056

A different layout for part of the listing above:
Target,NP40-soluble protein abundance (concentration: 1mM),NP40-soluble protein abundance (concentration: 2mM),NP40-soluble protein abundance (concentration: 4mM),NP40-soluble protein abundance (concentration: 6mM),NP40-soluble protein abundance (concentration: 8mM),NP40-soluble protein abundance (concentration: 10mM)
A0A075B7F8|A8CG34 and related entries (UniProt Q96HA1+A8CG34),0.918 ± 0.04,0.992 ± 0.061,1.22 ± 0.29,1.1 ± 0.065,1.13 ± 0.14,1.3 ± 0.16
A0A0A0MTL5|D6R9R7 and related entries (UniProt Q13309),1.08 ± 0.083,1.02 ± 0.12,0.977 ± 0.03,0.991 ± 0.059,1.02 ± 0.11,1.04 ± 0.16
A0A0C4DGX2|E7ESL0 and related entries (UniProt Q9NWU5),1.01 ± 0.046,0.952 ± 0.11,0.936 ± 0.14,0.906 ± 0.2,0.939 ± 0.15,0.959 ± 0.17
A0A0D9SFE4|A0A0D9SFB1|A0A0U1RQP1|Q05193 and related entries (UniProt Q05193),0.978 ± 0.029,0.971 ± 0.029,0.969 ± 0.057,0.958 ± 0.048,0.988 ± 0.014,0.976 ± 0.03
A0A087WX71|Q9H501 (UniProt Q9H501),1.03 ± 0.018,1.04 ± 0.019,1.06 ± 0.033,1.11 ± 0.034,1.09 ± 0.031,1.1 ± 0.015
A0A087X0C8|O15484 and related entries (UniProt O15484),1.027 ± 0.0097,0.993 ± 0.055,1.04 ± 0.049,1.01 ± 0.025,1.06 ± 0.038,1.05 ± 0.034
